The nature of the data set: Recovery of 2,5-BHPA from beagle dog plasma (methanol extraction, HPLC).

SMILES strings stand for the structures.

Data on one molecule can be found in article PMC6950567, “Evaluation of Marine Diindolinonepyrane in Vitro and in Vivo: Permeability Characterization in Caco-2 Cells Monolayer and Pharmacokinetic Properties in Beagle Dogs” (Marine Drugs, 2019).

For the molecule `CC(C)=CCCC(C)=CCCC1(C)Oc2c(c(O)cc3c2CN(CCCC(C(=O)O)N2Cc4c(cc(O)c5c4OC(C)(CCC=C(C)CCC=C(C)C)C(O)C5)C2=O)C3=O)CC1O` (stereo not drawn) [2,5-BHPA, 2,5-Bis-[8-(4,8-dimethyl-nona-3,7-dienyl)-5,7-dihydroxy-8-methyl-3-keto-1,2,7,8-tertahydro-6H-pyran[a]isoindol-2-yl]-pentanoic acid], the Recovery reads like this: (1.0 μg·mL^−1) 98.36 ± 6.38%; (100 μg·mL^−1) 102.26 ± 4.69%; (400 μg·mL^−1) 96.58 ± 5.61%.
